Measurements from PMC11648228.
No constants are given. Whether binding was seen depends on the method and setting. In cells and extracts the contact can be indirect. Some results given as binding are weak or reduced against the parent protein; the word gives no strength. Sequences can lack the tags named with a protein.

What was measured:
Test in all cases: co-IP; SPRED1/Spred1 constructs co-expressed with HA-zDHHC24 in cells (HEK293T); lysates precipitated with anti-FLAG antibody and TrueBlot anti-mouse Ig beads, anti-GFP-agarose or anti-Myc-agarose for 2 h at 4 °C; washed with 50 mM Tris-HCl pH 8.0, 150 mM NaCl, 1% Nonidet P-40; Western blot
[1] = biological target: T1, murine Spred1 S388* (C-terminal 56 amino acid deletion), Myc-tagged (murine) (UniProt Q924S8)
T1 sequence: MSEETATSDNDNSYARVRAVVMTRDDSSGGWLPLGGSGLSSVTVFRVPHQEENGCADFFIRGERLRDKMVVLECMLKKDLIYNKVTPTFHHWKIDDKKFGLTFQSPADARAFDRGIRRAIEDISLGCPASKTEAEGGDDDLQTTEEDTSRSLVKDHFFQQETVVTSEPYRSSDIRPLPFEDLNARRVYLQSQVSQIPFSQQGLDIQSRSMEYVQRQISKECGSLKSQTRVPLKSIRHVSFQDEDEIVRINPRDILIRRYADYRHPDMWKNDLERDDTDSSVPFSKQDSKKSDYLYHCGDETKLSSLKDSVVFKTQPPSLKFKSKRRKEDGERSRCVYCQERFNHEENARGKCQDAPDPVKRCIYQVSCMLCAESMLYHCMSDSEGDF

[2] = biological target: T2, murine Spred1, Myc-tagged, wild type (murine) (UniProt Q924S8)
T2 sequence: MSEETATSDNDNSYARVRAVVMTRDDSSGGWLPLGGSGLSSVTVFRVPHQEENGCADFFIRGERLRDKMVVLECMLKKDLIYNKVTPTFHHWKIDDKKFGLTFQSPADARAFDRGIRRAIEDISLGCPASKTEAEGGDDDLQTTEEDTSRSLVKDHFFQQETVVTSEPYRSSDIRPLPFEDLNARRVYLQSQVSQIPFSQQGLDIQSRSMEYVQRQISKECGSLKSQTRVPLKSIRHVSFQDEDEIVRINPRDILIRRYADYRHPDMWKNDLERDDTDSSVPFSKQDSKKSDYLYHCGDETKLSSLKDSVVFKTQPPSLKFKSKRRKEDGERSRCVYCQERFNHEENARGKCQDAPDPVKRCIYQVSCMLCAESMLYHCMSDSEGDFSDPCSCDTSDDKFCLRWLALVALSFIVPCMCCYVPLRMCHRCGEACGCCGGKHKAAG

[3] = biological target: T3, murine Spred1 C419* (C-terminal 26 amino acid deletion), Myc-tagged (murine) (UniProt Q924S8)
T3 sequence: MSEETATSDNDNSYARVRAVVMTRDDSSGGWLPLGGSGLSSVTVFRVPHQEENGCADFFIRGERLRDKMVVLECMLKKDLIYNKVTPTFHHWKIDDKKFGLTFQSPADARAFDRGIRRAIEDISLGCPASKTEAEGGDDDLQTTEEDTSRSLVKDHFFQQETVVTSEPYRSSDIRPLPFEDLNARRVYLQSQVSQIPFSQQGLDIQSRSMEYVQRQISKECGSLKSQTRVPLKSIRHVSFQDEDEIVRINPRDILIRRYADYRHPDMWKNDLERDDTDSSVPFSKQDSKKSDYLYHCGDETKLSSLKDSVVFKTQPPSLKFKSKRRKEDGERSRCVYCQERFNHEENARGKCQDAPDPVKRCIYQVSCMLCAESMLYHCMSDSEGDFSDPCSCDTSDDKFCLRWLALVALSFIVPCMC

[4] = biological target: T4, human SPRED1 (Sprouty-related protein with an EVH1 domain-1), wild type (human) (UniProt Q7Z699)
T4 sequence: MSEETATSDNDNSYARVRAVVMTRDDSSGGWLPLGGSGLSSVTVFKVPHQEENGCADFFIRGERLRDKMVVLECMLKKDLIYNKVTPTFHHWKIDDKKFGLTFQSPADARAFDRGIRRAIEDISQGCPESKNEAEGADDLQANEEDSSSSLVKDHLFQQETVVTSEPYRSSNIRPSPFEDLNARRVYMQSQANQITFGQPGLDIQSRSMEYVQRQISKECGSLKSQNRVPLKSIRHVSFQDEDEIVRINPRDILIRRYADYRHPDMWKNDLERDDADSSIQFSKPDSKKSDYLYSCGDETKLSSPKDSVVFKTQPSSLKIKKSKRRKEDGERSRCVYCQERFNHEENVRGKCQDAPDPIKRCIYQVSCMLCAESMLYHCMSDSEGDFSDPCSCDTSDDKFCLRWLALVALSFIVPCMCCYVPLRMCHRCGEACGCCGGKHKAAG

binding [1]: no binding
binding [2]: binds
binding [3]: binds
binding [4]: binds
B1: murine zDHHC24, HA-tagged (enzyme, UniProt Q6IR37 1-284)
chain: MGESWAARGAEGAPARMPLVLTALWAAVVVLELAYVMVLGPGPPPLGPLARALQLALAAYQLLNLLGNVVLFLRSDPSIRGVMLAGRGLGQGWAYCYQCQSQVPPRSGHCSACRVCILRRDHHCRLLGCCVGFHNYRPFLCLLLHSAGVLLHISVLLGPALSALLQAHSALYTVALLLLPWLMLLTGKVSLAQFALAFVVDTCVAGALLCGAGLLFHGMLLLRGQTTWEWARGHHCYDLGTCHNLQAALGPRWALVWFWPFLASPLPGDGISFQTPGDVGLVTS
